Data taken from publication doi:10.1101/2021.06.09.447721.
No constants are given. Whether binding was seen depends on the method and setting. In cells and extracts the contact can be indirect. Some binding calls cover weakened binding; strength is not graded here.

Sequences of proteins named here, by UniProt entry; tags and fusion partners are left off. Residues count along the entry.
UniProt Q01959, 579-620: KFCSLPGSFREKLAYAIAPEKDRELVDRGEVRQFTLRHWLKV
UniProt Q01959, whole entry: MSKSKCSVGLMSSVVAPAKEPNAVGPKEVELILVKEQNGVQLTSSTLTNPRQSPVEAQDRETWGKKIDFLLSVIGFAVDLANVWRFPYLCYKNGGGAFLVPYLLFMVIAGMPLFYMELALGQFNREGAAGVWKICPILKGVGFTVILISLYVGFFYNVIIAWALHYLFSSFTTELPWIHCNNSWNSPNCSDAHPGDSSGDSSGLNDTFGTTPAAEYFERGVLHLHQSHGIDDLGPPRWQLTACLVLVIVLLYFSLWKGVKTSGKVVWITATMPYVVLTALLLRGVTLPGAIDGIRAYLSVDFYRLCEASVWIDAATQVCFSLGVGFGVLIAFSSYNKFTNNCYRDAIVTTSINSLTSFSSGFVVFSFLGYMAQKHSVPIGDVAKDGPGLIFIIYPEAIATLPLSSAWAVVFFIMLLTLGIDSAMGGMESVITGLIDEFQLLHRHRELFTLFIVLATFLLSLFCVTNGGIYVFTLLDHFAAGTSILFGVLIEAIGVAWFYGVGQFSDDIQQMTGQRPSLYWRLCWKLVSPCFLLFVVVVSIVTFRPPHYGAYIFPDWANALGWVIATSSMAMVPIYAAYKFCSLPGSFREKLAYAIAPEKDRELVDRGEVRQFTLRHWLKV
UniProt P23975, 570-617: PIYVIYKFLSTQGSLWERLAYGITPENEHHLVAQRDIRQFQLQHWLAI
UniProt P23975, whole entry: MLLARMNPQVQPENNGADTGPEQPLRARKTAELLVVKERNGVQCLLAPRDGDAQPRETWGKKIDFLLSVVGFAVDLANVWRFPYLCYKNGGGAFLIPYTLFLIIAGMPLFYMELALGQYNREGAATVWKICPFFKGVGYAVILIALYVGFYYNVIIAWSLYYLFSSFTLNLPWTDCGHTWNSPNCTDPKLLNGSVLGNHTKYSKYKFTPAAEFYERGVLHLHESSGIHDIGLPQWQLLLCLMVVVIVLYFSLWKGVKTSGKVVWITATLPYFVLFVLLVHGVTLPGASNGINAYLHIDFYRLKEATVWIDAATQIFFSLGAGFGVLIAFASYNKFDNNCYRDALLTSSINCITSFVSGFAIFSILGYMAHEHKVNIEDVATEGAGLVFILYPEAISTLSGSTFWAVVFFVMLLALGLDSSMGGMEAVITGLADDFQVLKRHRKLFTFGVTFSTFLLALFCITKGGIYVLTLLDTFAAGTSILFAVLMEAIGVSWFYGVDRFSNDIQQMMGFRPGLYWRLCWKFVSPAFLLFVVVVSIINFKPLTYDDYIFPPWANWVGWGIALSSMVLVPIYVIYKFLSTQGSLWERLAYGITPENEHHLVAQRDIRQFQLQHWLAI
UniProt P30531, whole entry: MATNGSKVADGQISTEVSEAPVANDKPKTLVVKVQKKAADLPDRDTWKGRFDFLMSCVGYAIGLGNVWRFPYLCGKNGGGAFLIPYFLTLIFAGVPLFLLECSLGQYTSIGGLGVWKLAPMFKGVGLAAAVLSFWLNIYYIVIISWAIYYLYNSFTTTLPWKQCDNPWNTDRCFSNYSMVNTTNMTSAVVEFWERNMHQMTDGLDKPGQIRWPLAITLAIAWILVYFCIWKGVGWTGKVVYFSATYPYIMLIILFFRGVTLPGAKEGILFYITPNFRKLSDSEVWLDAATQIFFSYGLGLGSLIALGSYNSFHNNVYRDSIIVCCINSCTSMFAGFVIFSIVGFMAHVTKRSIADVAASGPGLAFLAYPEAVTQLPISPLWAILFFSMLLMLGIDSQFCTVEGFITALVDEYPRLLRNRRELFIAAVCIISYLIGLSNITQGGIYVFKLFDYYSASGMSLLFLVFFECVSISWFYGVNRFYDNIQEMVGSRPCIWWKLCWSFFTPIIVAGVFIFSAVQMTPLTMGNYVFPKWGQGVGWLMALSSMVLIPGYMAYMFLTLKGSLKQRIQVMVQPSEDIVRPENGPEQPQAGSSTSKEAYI

How the values were obtained:
GST-hDAT-Ct (human) = GST-hDAT-Ct (human) (UniProt Q01959); test: pull-down
GST-hNET-Ct (human) = GST-hNET-Ct (human) (UniProt P23975); test: pull-down
YFP-hDAT (human) = YFP-hDAT (human) (UniProt Q01959); test: co-IP
YFP-hGAT1 (human) = YFP-hGAT1 (human) (UniProt P30531); test: co-IP
YFP-hNET (human) = YFP-hNET (human) (UniProt P23975); test: co-IP

Measured: binding

B1: p31^COMET (protein, UniProt Q15013 1-274)
chain: MAAPEAEVLSSAAVPDLEWYEKSEETHASQIELLETSSTQEPLNASEAFCPRDCMVPVVFPGPVSQEGCCQFTCELLKHIMYQRQQLPLPYEQLKHFYRKPSPQAEEMLKKKPRATTEVSSRKCQQALAELESVLSHLEDFFARTLVPRVLILLGGNALSPKEFYELDLSLLAPYSVDQSLSTAACLRRLFRAIFMADAFSELQAPPLMGTVVMAQGHRNCGEDWFRPKLNYRVPSRGHKLTVTLSCGRPSIRTTAWEDYIWFQAPVTFKGFRE
binds: all assays above
